The record followed here is PubChem BioAssay AID192 (DTP/NCI, 2004).

The list shows only some results of the screen, not a fair sample: it is rich in T/C values a quarter to a half above the control, in often repeated tests (any T/C) and in doses without a T/C. Other doses and runs of a compound stand elsewhere. T/C is the treated group as % of the vehicle group. Some entries give survivors of the animals treated and no T/C: the source holds a T/C of zero for them, seemingly a mark for toxic or unscored doses. Some doses without a T/C left all or most animals alive at the check, yet need not have been tolerated: survival well below the control is almost never listed, so the zero probably covers shortened survival too. Counts of survivors are from the toxicity check (mostly the fifth day) where no day follows; animals may have died later. Schedule codes are those of the source, taken here to give the interval after Q, in days (D) or hours (H), and the number of doses after X. For survival time, the PubChem record calls one and a half times the control and up active, and a quarter to a half above the control has no call in these data; cut-offs in other NCI protocols can differ. Some T/C values are followed by the survivors on the day toxicity was checked, most often the fifth; where none is given, no animal had died by that day.

For the assay, the system named is BDF1 mice, B16 melanoma ip, median survival T/C. The assay can be described thus: NCI In Vivo Anticancer Drug Screen. Data for tumor model B16 Melanoma (intraperitoneal) in B6D2F1 (BDF1) mice. To be noted: T/C endpoint: median survival time, higher T/C = longer survival. In outline:
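In this screen, activity was judged from survival or tumor size in treated versus vehicle-treated tumor-bearing mice, reported as T/C.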

[1] abbreviates: dose: 400.0 mg/kg/injection, schedule: Q04DX003 (ip), vehicle: saline with Tween-80.
Where [2] appears, read: dose: 400.0 mg/kg/injection, schedule: Q01DX009 (ip), vehicle: Klucel (hydroxypropylcellulose) (HPC).
The mark [3] stands for this setting: dose: 100.0 mg/kg/injection, schedule: Q01DX009 (ip), vehicle: Klucel (hydroxypropylcellulose) (HPC).
The mark [4] stands for this setting: dose: 200.0 mg/kg/injection, schedule: Q01DX009 (ip), vehicle: Klucel (hydroxypropylcellulose) (HPC).

Regarding `COC1=C2CC(C)CC(OC)C(OC(C)=O)C(C)/C=C(\C)C(OC(N)=O)C(OC)/C=C\C=C(/C)C(=O)NC(=CC1=O)C2=O` (stereo not drawn), the survivor count was 0 of 6 (dose: 12.5 mg/kg/injection, schedule: Q01DX005 (ip), vehicle: other); 0 of 6 (dose: 25.0 mg/kg/injection, schedule: Q01DX005 (ip), vehicle: other); 0 of 6 (dose: 50.0 mg/kg/injection, schedule: Q01DX005 (ip), vehicle: other); 0 of 6 (dose: 100.0 mg/kg/injection, schedule: Q01DX005 (ip), vehicle: other); 0 of 6 (dose: 200.0 mg/kg/injection, schedule: Q01DX005 (ip), vehicle: other).
With `CC(=O)CC(=O)Nc1cc(Cl)c(NC(=O)CC(C)=O)cc1Cl`, the T/C under setting [1] was 132 % of control [9 of 10 alive].
Take `N=C(N)SCc1cccc2c(=O)cc(-c3ccccc3)oc12`: the survivor count (dose: 400.0 mg/kg/injection, schedule: Q01DX009 (ip), vehicle: saline) is recorded as 6 of 10.
With `COc1cccc(N2C(=O)CSC2=S)c1`, under setting [2], the survivor count is reported as 1 of 10.
For `CCN1/C(=C/C=C/c2oc3ccccc3[n+]2CC)Oc2ccccc21`, the survivor count (dose: 0.04 mg/kg/injection, schedule: Q01DX009 (ip), vehicle: saline sonified) is 3 of 6; the survivor count (dose: 0.08 mg/kg/injection, schedule: Q01DX009 (ip), vehicle: saline sonified) is on record as 2 of 6; the survivor count (dose: 0.15 mg/kg/injection, schedule: Q01DX009 (ip), vehicle: saline sonified) is listed as 2 of 6; the survivor count (dose: 0.3 mg/kg/injection, schedule: Q01DX009 (ip), vehicle: saline sonified) is 0 of 6.
Turning to `CCCCCCCCCCCCCC(=O)OC12CC(C)C3(O)C(C=C(CO)C(O)C4(O)C(=O)C(C)=CC43)C1C2(C)C` (stereo not drawn), the survivor count is, setting by setting: (dose: 0.06 mg/kg/injection, schedule: Q01DX009 (ip), vehicle: saline + alcohol) 9 of 10; (dose: 0.25 mg/kg/injection, schedule: Q01DX009 (ip), vehicle: saline + alcohol) 10 of 10; (dose: 0.5 mg/kg/injection, schedule: Q01DX009 (ip), vehicle: saline + alcohol) 10 of 10; (dose: 1.0 mg/kg/injection, schedule: Q01DX009 (ip), vehicle: saline + alcohol) 9 of 10.
With `O=C(Nc1cc(Cl)ccc1Cl)c1ccc(Cl)cc1Cl`, the survivor count is, setting by setting: (dose: 50.0 mg/kg/injection, schedule: Q04DX003 (ip), vehicle: saline with Tween-80) 9 of 10; (dose: 100.0 mg/kg/injection, schedule: Q04DX003 (ip), vehicle: saline with Tween-80) 10 of 10; (dose: 200.0 mg/kg/injection, schedule: Q04DX003 (ip), vehicle: saline with Tween-80) 10 of 10.
Consider `CC1=C/C(=N\NS(=O)(=O)c2ccc([N+](=O)[O-])cc2)CC(C)(C)C1`, for which the T/C by setting is: under setting [3], 139 % of control; under setting [4], 136 % of control; under setting [2], 141 % of control.
Turning to `O=C(O)c1ccc2c([N+](=O)[O-])cccc2n1`, the survivor count under setting [4] is listed as 0 of 10.
As to `COC(=O)C1C2CC3c4[nH]c5cc(OC)ccc5c4CCN3CC2CC(OC(=O)c2cc(OC)c(OC)c(OC)c2)C1OC` (stereo not drawn), the survivor count under setting [3] was 0 of 10, the survivor count under setting [4] is 0 of 10 and the survivor count under setting [2] is recorded as 0 of 10.
As to `O=[N+]([O-])c1ccc2c(N=Nc3ccc4ccccc4c3O)c(O)cc(S(=O)(=O)O)c2c1`, the survivor count (dose: 150.0 mg/kg/injection, schedule: Q01DX009 (ip), vehicle: Klucel (hydroxypropylcellulose) (HPC)) was 10 of 10.
In the case of `CCCCNc1ccc(Nc2ccccc2)cc1`, the survivor count (dose: 100.0 mg/kg/injection, schedule: Q01DX009 (ip), vehicle: saline + alcohol) is 8 of 10.
In the case of `O=C(O)c1c(O)c(-c2ccccc2)nc2ccccc12`, under setting [4], the survivor count is reported as 10 of 10.
Consider `Cc1ccc(C)c(NS(=O)(=O)c2ccc(Cl)cc2)c1`, for which, under setting [2], the survivor count is recorded as 10 of 10.
With `COc1cccc2c1C(=O)c1c(O)c3c(c(O)c1C2=O)C[C@@](O)(C(=O)CO)C[C@@H]3OC1CC(NC=O)C(O)C(C)O1` (stereo partly drawn), the T/C reads like this: (dose: 3.13 mg/kg/injection, schedule: Q01DX009 (ip), vehicle: other) 133 % of control; (dose: 6.25 mg/kg/injection, schedule: Q01DX009 (ip), vehicle: other) 142 % of control.
For `CC1C2CCC3C(O)C2(CC(O)C2(O)C1CC(O)C2(C)C)CC3(C)O` (stereo not drawn), the survivor count (dose: 1.0 mg/kg/injection, schedule: Q01DX009 (ip), vehicle: Klucel (hydroxypropylcellulose) (HPC)) is on record as 6 of 10.
`COC(=O)N1C=Cc2ccccc2C1C#N` (stereo not drawn): the survivor count (dose: 200.0 mg/kg/injection, schedule: Q01DX009 (ip), vehicle: saline with Tween-80) is given as 0 of 10.
As for `CNC(=O)Nc1ccc(C)c(Cl)c1`, the survivor count under setting [2] is reported as 10 of 10.
With `COc1ccc(CCN2C(=O)CSC2=S)cc1OC`, the survivor count is, setting by setting: (dose: 100.0 mg/kg/injection, schedule: Q01DX009 (ip), vehicle: saline with Tween-80) 6 of 6; under setting [4], 9 of 10; under setting [2], 5 of 10; (dose: 400.0 mg/kg/injection, schedule: Q01DX009 (ip), vehicle: saline with Tween-80) 10 of 10; under setting [1], 10 of 10.
With `CN(C)CCCN1c2ccccc2Sc2ccc(C(F)(F)F)cc21`, the survivor count (dose: 0.12 mg/kg/injection, schedule: Q01DX009 (ip), vehicle: saline) was 10 of 10; the survivor count (dose: 1.0 mg/kg/injection, schedule: Q01DX009 (ip), vehicle: saline) is reported as 10 of 10; the survivor count (dose: 4.0 mg/kg/injection, schedule: Q01DX009 (ip), vehicle: saline) was 9 of 10; the survivor count (dose: 16.0 mg/kg/injection, schedule: Q01DX009 (ip), vehicle: saline) was 6 of 10; the survivor count (dose: 32.0 mg/kg/injection, schedule: Q01DX009 (ip), vehicle: saline) is recorded as 0 of 10.
Regarding `CC1=C(/C=C/C(C)=C/C=C/C(C)=C/C=O)C(C)(C)CCC1`, for the setting “dose: 128.0 mg/kg/injection, schedule: Q01DX005 (ip), vehicle: DMSO”, the survivor count is 10 of 10.
With `C=C(C)[C@@H]1CC[C@]2(C)CC[C@]3(C)[C@H](CC[C@@H]4[C@@]5(C)CC[C@H](O)C(C)(C)[C@@H]5CC[C@]43C)[C@@H]12`, the survivor count was 9 of 10 (dose: 12.5 mg/kg/injection, schedule: Q01DX009 (ip), vehicle: Klucel (hydroxypropylcellulose) (HPC)); 10 of 10 (dose: 25.0 mg/kg/injection, schedule: Q01DX009 (ip), vehicle: Klucel (hydroxypropylcellulose) (HPC)); 10 of 10 (dose: 50.0 mg/kg/injection, schedule: Q01DX009 (ip), vehicle: Klucel (hydroxypropylcellulose) (HPC)); 5 of 10 under setting [3].
On to `COc1ccc(N2CSC(=S)N(c3ccc(OC)cc3)C2)cc1`, for which the T/C (dose: 12.5 mg/kg/injection, schedule: Q01DX009 (ip), vehicle: saline with Tween-80) is 130 % of control. In addition, the survivor count reads like this: under setting [3], 10 of 10; under setting [4], 10 of 10; under setting [2], 10 of 10.
For the compound `COc1ccc2c(c1)N(CCCN(C)C)c1ccccc1S2`, the survivor count is reported as 10 of 10 (dose: 9.37 mg/kg/injection, schedule: Q01DX009 (ip), vehicle: saline); 0 of 10 (dose: 75.0 mg/kg/injection, schedule: Q01DX009 (ip), vehicle: saline); 0 of 10 (dose: 150.0 mg/kg/injection, schedule: Q01DX009 (ip), vehicle: saline); 0 of 10 (dose: 300.0 mg/kg/injection, schedule: Q01DX009 (ip), vehicle: saline).
Consider `CC1C[N-]CC(C)C1.CC1C[N-]CC(C)C1.CC1C[N-]CC(C)C1.CC1C[N-]CC(C)C1.[Cl][Rh][Cl]` (stereo not drawn), for which the survivor count (dose: 12.0 mg/kg/injection, schedule: Q01DX009 (ip), vehicle: saline with Tween-80) is 10 of 10 and the survivor count (dose: 24.0 mg/kg/injection, schedule: Q01DX009 (ip), vehicle: saline with Tween-80) is listed as 7 of 10. For the setting “dose: 12.0 mg/kg/injection, schedule: Q01DX009 (ip), vehicle: saline”, the T/C is 127 % of control.
In the case of `Cc1ccc2c(c1)P(=O)(O)c1cc(Cl)ccc1O2`, the survivor count (dose: 720.0 mg/kg/injection, schedule: Q04DX003 (ip), vehicle: water) was 6 of 8 and the survivor count (dose: 1200.0 mg/kg/injection, schedule: Q04DX003 (ip), vehicle: water) is 3 of 8.
